Data source: PubChem BioAssay AID1671195 (Yale University, 2021)

Screen: 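Regulators of LDL receptor activity judged by labelled LDL uptake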 (primary screen)
System: human Huh7 hepatoma cells
Knock-down reagent: siRNA pool against human genes, 18 nM
Timing: about 2 to 2.5 days of knockdown, then 8 h LDL uptake
Challenge: DiI-labelled LDL at 30 µg/ml for 8 h, in lipoprotein-deficient serum medium
Measured: 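Fluorescent LDL signal imaged in cells, scaled to the plate median, robust z-score for each replicate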
Reading the numbers: robust z-score: higher = more LDL uptake after knockdown
Rule for the call: 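Active when two or more replicates show a robust z-score above 2 or below -2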
The deposit covers about 22,000 reagents; this is a random part of them. About 1,510 of them (6.9%) count as active. 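Active includes knockdowns raising or lowering LDL uptake; positive z-scores mean more uptake, negative mean less.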 Entries without a mark were called inactive. Reagents against one gene are numbered here. Reagent sequences are not shown.

| gene | pool no. | robust z-score, replicate 1 | robust z-score, replicate 2 | robust z-score, replicate 3 |
| --- | --- | --- | --- | --- |
| CPED1 (GeneID 79974) | 1 | 0.346 | 0.121 | 0.538 |
| MSRB1P1 (GeneID 441849) | 1 | 0.135 | 0.263 | 0.122 |
| NRG3 (GeneID 10718) | 1 | -0.676 | 0.0621 | -1.4 |
| APPBP2 (GeneID 10513) | 1 | 1.1 | 0.854 | 0.527 |
| PEX19 (GeneID 5824) | 1 | -0.232 | -0.425 | -0.433 |
| KERA (GeneID 11081) | 1 | 0.395 | 0.597 | 0.323 |
| IFITM3P7 (GeneID 391020) | 1 | 1.05 | 1.17 | 0.877 |
| GLUD2 (GeneID 2747) | 1 | -0.296 | -0.35 | -0.409 |
| SLC45A1 (GeneID 50651) | 1 | -1.16 | -1.11 | -1.5 |
| LINC02551 (GeneID 100507431) | 1 | -1.63 | -1.24 | -1.4 |
| LOC441621 (retired record) (GeneID 441621) | 1 | 0.905 | 0.905 | 1.07 |
| ING4 (GeneID 51147) | 1 | 0.28 | -0.0247 | 0.3 |
| SSH1 (GeneID 54434) | 1 | 1.19 | 0.768 | 1.21 |
| TEX36 (GeneID 387718) | 1 | -0.17 | -0.123 | 0.313 |
| IGHV3OR16-12 (GeneID 28304) | 1 | -1.09 | -0.819 | -0.848 |
| PRAF2 (GeneID 11230) | 1 | -0.0745 | -0.644 | -0.165 |
| ARK2C (GeneID 494470) | 1 | 0.384 | 0.447 | 0.257 |
| ACYP2 (GeneID 98) | 1 | -0.611 | -0.884 | -0.575 |
| MGARP (GeneID 84709) | 1 | -1.36 | -1.2 | -1.67 |
| ZNF641 (GeneID 121274) | 1 | 1.83 | 1.08 | 0.521 |
| MTMR7 (GeneID 9108) | 1 | -0.571 | -0.586 | -0.486 |
| PCOLCE (GeneID 5118) | 1 | -0.35 | -1.46 | -0.413 |
| RASGEF1B (GeneID 153020) | 1 | 0.601 | 0.749 | -0.274 |
| KRTAP4-7 (GeneID 100132476) | 1 | -1.11 | -1.21 | -1.2 |
| NFE2 (GeneID 4778) | 1 | 0.0537 | -0.0257 | -0.13 |
| SPNS3 (GeneID 201305) | 1 | 0.201 | -0.571 | -0.803 |
| TAS2R14 (GeneID 50840) | 1 | -0.58 | -0.621 | -1.2 |
| MOV10L1 (GeneID 54456) | 1 | -0.797 | 0.0295 | 0.0392 |
| ID2 (GeneID 3398) | 1 | 2.25 (active) | 2.42 | 2.41 |
| ATP5F1B (GeneID 506) | 1 | 0.0905 | 0.561 | -0.293 |
| MC1R (GeneID 4157) | 1 | -0.644 | 0.662 | -2.66 |
| HYDIN (GeneID 54768) | 1 | -1.34 | -2.93 | -1.44 |

Laid out differently: entries from further up.
RASGEF1B (GeneID 153020) | robust z-score, replicate 1 = 0.601; robust z-score, replicate 2 = 0.749; robust z-score, replicate 3 = -0.274
KRTAP4-7 (GeneID 100132476) | robust z-score, replicate 1 = -1.11; robust z-score, replicate 2 = -1.21; robust z-score, replicate 3 = -1.2
NFE2 (GeneID 4778) | robust z-score, replicate 1 = 0.0537; robust z-score, replicate 2 = -0.0257; robust z-score, replicate 3 = -0.13
SPNS3 (GeneID 201305) | robust z-score, replicate 1 = 0.201; robust z-score, replicate 2 = -0.571; robust z-score, replicate 3 = -0.803

Further entries follow.
| gene | pool no. | robust z-score, replicate 1 | robust z-score, replicate 2 | robust z-score, replicate 3 |
| --- | --- | --- | --- | --- |
| TBC1D23 (GeneID 55773) | 1 | 0.814 | 0.0292 | -0.103 |
| HOXC11 (GeneID 3227) | 1 | 2.62 (active) | 2.14 | 2.78 |
| P3H2 (GeneID 55214) | 1 | 3.05 (active) | 2.98 | 2.9 |
| MMP11 (GeneID 4320) | 1 | -0.254 | 0.222 | 1.3 |
| FNDC9 (GeneID 408263) | 1 | 0.178 | 0.544 | 0.152 |
| ZNF274 (GeneID 10782) | 1 | -0.528 | -0.0734 | -0.207 |
| WEE2-AS1 (GeneID 285962) | 1 | -1.78 (active) | -1.97 | -2.03 |
| CD63 (GeneID 967) | 1 | -1.2 | -0.81 | -1.28 |
| ZNF792 (GeneID 126375) | 1 | -0.947 | -0.0231 | -0.0391 |
| ADRA1D (GeneID 146) | 1 | -0.337 | -1.01 | -1.06 |
| HRH1 (GeneID 3269) | 1 | 2.81 (active) | 1.39 | 2.09 |
| LTB4R2 (GeneID 56413) | 1 | -0.45 | -0.524 | -0.261 |
| ITGA7 (GeneID 3679) | 1 | 0.662 | -1.12 | -1.15 |
| SLC35D3 (GeneID 340146) | 1 | -0.503 | -0.688 | -0.303 |
| AIDA (GeneID 64853) | 1 | 0.519 | 0.423 | -0.0344 |
| TRMT112 (GeneID 51504) | 1 | -0.468 | 1.18 | -0.946 |
| TM7SF2 (GeneID 7108) | 1 | -1 | -1.29 | -1.06 |
| CLNS1A (GeneID 1207) | 1 | 2.41 | 1.52 | 1.08 |
| SLC35B2 (GeneID 347734) | 1 | -1.58 | -1.51 | -1.85 |
| SIX1 (GeneID 6495) | 1 | 0.811 | -0.351 | -0.374 |
| POGLUT1 (GeneID 56983) | 1 | 0.895 | 2.19 | 0.735 |
| TONSL (GeneID 4796) | 1 | 2.05 (active) | 1.63 | 2.72 |
| SLC33A2 (GeneID 113655) | 1 | 0.517 | 0.642 | 1.07 |
| NR5A1 (GeneID 2516) | 1 | -0.775 | -0.0585 | -0.779 |
| ICA1 (GeneID 3382) | 1 | -0.913 | -0.355 | -0.475 |
| SPECC1L (GeneID 23384) | 1 | 0.241 | 1.93 | -0.439 |
| SBF2 (GeneID 81846) | 1 | -1.29 | -1.36 | -1.54 |
| ZMAT1 (GeneID 84460) | 1 | -1.58 | -0.526 | 0.0431 |
| TAS2R42 (GeneID 353164) | 1 | 0.653 | 0.231 | 0.00314 |
| ACBD5 (GeneID 91452) | 1 | 0.949 | 1.24 | 1.17 |
| FCGBP (GeneID 8857) | 1 | 0.0294 | 0.45 | -1.01 |
| AMZ1 (GeneID 155185) | 1 | -1.61 | -1.51 | -1.95 |
| CDKN1A (GeneID 1026) | 1 | -0.262 | -0.336 | 2.16 |
| SYNE3 (GeneID 161176) | 1 | 0.115 | 0.241 | 1.29 |
| SYNE3 (GeneID 161176) | 2 | -1.85 | -2.13 | -1.58 |
| SGO2 (GeneID 151246) | 1 | 1.19 | 0.0914 | -0.0915 |
